The values that follow come from article PMC10336132 (2023).

Amino acid sequences for entries named in this document (tags omitted). A change or cut given only in a name is not applied to a line headed by its entry.
UniProt B8GX61: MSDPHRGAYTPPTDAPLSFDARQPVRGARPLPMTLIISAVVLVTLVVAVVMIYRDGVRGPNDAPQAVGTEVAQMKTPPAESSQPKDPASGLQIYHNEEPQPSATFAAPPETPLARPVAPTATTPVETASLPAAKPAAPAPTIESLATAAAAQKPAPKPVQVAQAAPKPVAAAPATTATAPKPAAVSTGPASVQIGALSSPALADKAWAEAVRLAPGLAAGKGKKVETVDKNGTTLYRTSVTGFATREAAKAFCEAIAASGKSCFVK
UniProt A0A0H3C9I3: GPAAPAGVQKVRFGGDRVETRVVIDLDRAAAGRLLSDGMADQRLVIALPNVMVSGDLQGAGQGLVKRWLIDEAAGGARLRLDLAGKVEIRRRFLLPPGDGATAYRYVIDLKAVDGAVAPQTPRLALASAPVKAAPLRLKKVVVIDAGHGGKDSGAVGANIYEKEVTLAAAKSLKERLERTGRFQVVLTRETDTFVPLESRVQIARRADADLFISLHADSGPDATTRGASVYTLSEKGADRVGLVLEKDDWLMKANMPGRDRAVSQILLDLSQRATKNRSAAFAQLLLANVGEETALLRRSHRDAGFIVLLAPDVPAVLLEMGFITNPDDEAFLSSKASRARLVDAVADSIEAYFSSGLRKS
UniProt A0A0H3C9Q9: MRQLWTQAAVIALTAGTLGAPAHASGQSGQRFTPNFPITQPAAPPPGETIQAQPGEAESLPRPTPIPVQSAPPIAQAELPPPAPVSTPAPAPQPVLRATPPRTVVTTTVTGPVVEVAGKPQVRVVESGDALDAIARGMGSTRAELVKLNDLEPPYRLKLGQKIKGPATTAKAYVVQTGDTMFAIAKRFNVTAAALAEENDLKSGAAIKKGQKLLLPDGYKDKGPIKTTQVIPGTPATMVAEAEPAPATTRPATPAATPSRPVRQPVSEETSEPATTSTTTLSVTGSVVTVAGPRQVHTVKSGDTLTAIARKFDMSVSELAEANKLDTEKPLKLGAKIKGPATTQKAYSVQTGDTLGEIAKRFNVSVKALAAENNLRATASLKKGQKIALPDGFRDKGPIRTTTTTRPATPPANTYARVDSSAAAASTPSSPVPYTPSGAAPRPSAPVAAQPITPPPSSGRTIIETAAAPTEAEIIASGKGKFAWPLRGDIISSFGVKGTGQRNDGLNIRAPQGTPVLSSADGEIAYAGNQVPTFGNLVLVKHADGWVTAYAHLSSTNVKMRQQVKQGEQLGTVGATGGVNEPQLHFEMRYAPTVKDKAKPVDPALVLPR

Results are given in words; binding and its absence hold for the method and conditions named. In cells and extracts the contact can be indirect. Here binding means that the protein was enriched with, or labelled near, the bait; the list need not be complete.

For assay [1], the target named is DipM-FLAG (Caulobacter crescentus NA1000). The experiment in a line: affinity purification with mass spectrometry; FLAG-tagged bait produced in C. crescentus in place of the native protein; cells crosslinked with 0.6% formaldehyde, lysed with 0.5% or 1% Triton X-100; capture on anti-FLAG M2 magnetic beads; enrichment against the untagged control.
The target of assay [2] is SdpA-FLAG (Caulobacter crescentus NA1000). The assay is described as above.
The target in assay [3] is FtsN-GFP (Caulobacter crescentus NA1000) (UniProt B8GX61). The experiment in a line: affinity purification with mass spectrometry; FtsN-GFP from the endogenous locus in C. crescentus; cells crosslinked with 0.6% formaldehyde, lysed with 1% Triton X-100; capture on GFP-Trap magnetic agarose; wild-type NA1000 as control.

Take AmiC (from UniProt A0A0H3C9I3) (enzyme): in assay [1], the binding entry is recorded as “binds”. Turning to DipM (from UniProt A0A0H3C9Q9), the binding entry in assay [2] and in assay [3] was “binds” throughout. Take FtsN (from UniProt B8GX61): the binding entry in assay [1] is “binds”.
